From paper PMC10667520 come the findings set out here.

No constants are given. Whether binding was seen depends on the method and setting. In cells and extracts the contact can be indirect. Sequences can lack the tags named with a protein.

The target of the assay is T1, SLC35D3 (solute carrier family 35, member D3), His-tagged (UniProt Q5M8T2).
T1 sequence: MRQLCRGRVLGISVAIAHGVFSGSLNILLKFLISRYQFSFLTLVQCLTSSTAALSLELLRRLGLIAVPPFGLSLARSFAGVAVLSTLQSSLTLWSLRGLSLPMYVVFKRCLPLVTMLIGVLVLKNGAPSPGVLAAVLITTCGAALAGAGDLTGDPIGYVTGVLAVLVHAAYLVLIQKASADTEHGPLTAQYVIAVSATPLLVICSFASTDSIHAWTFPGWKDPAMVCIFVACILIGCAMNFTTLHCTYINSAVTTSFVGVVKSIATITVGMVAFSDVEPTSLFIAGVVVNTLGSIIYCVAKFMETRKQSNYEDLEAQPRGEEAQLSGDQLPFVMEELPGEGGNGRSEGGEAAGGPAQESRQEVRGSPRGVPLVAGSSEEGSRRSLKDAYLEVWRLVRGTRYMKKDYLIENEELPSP
In words: co-IP; HEK293T cells 48 h after transfection, lysed in IP lysis buffer; lysates incubated with antibodies at 4 °C overnight, protein A/G beads 1 h at room temperature; immunoblot. A general note: Immunoblotting shows a protein as a band on a membrane.

“myc-tagged NOTCH1 intracellular domain (NICD) (domain or fragment)”: the binding entry is recorded as “no binding”.
